No constants are given. Whether binding was seen depends on the method and setting. Binding seen in cells or lysates may run through a third protein. Sequences can lack the tags named with a protein.
Molecular target: T1, PXY-CFP (Arabidopsis thaliana) (UniProt Q9FII5)
T1 sequence: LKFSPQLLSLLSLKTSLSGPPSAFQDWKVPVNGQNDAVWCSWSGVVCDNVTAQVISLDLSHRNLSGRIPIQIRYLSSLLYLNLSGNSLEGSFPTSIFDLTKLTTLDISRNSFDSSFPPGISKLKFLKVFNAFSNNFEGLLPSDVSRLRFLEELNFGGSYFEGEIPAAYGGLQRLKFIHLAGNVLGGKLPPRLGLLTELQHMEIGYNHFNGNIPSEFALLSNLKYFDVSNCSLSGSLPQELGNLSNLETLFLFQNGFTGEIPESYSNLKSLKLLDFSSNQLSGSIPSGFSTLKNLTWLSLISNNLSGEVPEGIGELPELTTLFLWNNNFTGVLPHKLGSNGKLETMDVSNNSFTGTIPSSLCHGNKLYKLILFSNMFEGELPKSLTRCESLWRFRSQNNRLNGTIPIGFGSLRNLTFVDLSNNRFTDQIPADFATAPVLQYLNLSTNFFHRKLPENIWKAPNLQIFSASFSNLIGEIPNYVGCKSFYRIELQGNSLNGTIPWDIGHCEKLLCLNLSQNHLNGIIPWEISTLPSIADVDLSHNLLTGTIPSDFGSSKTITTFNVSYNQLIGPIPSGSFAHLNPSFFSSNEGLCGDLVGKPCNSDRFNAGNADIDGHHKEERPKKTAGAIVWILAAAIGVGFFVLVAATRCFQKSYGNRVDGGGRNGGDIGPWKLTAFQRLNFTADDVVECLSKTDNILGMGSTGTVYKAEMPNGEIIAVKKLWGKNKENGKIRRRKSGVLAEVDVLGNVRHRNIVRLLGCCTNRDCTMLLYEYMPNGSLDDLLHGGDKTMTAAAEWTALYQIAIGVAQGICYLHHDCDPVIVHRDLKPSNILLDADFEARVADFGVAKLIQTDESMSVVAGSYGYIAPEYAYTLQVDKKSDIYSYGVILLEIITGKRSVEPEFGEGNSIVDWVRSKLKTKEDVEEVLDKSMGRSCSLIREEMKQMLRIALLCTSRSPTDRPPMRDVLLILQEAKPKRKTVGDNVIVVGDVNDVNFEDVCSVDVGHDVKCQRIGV
Experiment: FRET or BRET; FRET between CFP and YFP fusions coinfiltrated into Nicotiana leaves; epidermal cells, confocal spectral (Lambda mode) scans at the plasma membrane, 458 nm excitation

B1: ERL1-YFP (receptor, UniProt C0LGW6 26-966)
chain: MNNEGKALMAIKGSFSNLVNMLLDWDDVHNSDLCSWRGVFCDNVSYSVVSLNLSSLNLGGEISPAIGDLRNLQSIDLQGNKLAGQIPDEIGNCASLVYLDLSENLLYGDIPFSISKLKQLETLNLKNNQLTGPVPATLTQIPNLKRLDLAGNHLTGEISRLLYWNEVLQYLGLRGNMLTGTLSSDMCQLTGLWYFDVRGNNLTGTIPESIGNCTSFQILDISYNQITGEIPYNIGFLQVATLSLQGNRLTGRIPEVIGLMQALAVLDLSDNELVGPIPPILGNLSFTGKLYLHGNMLTGPIPSELGNMSRLSYLQLNDNKLVGTIPPELGKLEQLFELNLANNRLVGPIPSNISSCAALNQFNVHGNLLSGSIPLAFRNLGSLTYLNLSSNNFKGKIPVELGHIINLDKLDLSGNNFSGSIPLTLGDLEHLLILNLSRNHLSGQLPAEFGNLRSIQMIDVSFNLLSGVIPTELGQLQNLNSLILNNNKLHGKIPDQLTNCFTLVNLNVSFNNLSGIVPPMKNFSRFAPASFVGNPYLCGNWVGSICGPLPKSRVFSRGALICIVLGVITLLCMIFLAVYKSMQQKKILQGSSKQAEGLTKLVILHMDMAIHTFDDIMRVTENLNEKFIIGYGASSTVYKCALKSSRPIAIKRLYNQYPHNLREFETELETIGSIRHRNIVSLHGYALSPTGNLLFYDYMENGSLWDLLHGSLKKVKLDWETRLKIAVGAAQGLAYLHHDCTPRIIHRDIKSSNILLDENFEAHLSDFGIAKSIPASKTHASTYVLGTIGYIDPEYARTSRINEKSDIYSFGIVLLELLTGKKAVDNEANLHQLILSKADDNTVMEAVDPEVTVTCMDLGHIRKTFQLALLCTKRNPLERPTMLEVSRVLLSLVPSLQVAKKLPSLDHSTKKLQQENEVRNPDAEASQWFVQFREVISKSSI
binding: no binding
